The record followed here is the supplement of paper PMC4635364.

Structures are written as SMILES. Counter-ions that a name gives are not always drawn. The list shows a part of the results. Single values are uncertain here, since repeats match poorly.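 Cells: ReNCell VM human fetal ventral-midbrain neural progenitors, differentiated mitogen-free. Blinded raters compared doublecortin-stained (early neurons) or tyrosine hydroxylase-stained (dopaminergic neurons) images with untreated wells, where 0 means no change. After repeats and both raters were averaged, compounds scoring 2 or above became hits for retesting.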

In experiment [1] the test system is ReNCell VM. The experiment in a line: neuronal differentiation score (DCX+ cell fraction vs untreated, manual image score) (score (-3 to 3)); higher = more neuronal differentiation. The settings on record: 2 uM, 2 weeks.
Experiment [2] deals with ReNCell VM. The experiment in a line: dopaminergic neuron differentiation score (TH+ cell fraction vs untreated, manual image score) (score (0 to 3)); higher = more TH+ dopaminergic neuron differentiation. Particulars: 2 uM, 4 weeks, BDNF 10 ng/ml + GDNF 10 ng/ml.

For the compound `CC(=O)[C@H]1CC[C@H]2[C@@H]3CC[C@H]4C[C@H](O)CC[C@]4(C)[C@H]3CC[C@]12C` [5alpha-Pregnan-3alpha-ol-20-one], the neuronal differentiation score with ReNCell VM [1] (library: LOPAC) is inactive: 0. Further, the “dopaminergic neuron differentiation score” value with ReNCell VM [2] (library: LOPAC) was inactive: 0.
With `CN1CCC2=C[C@H](O)[C@H]3OC(=O)c4cc5c(cc4[C@H]3[C@@H]21)OCO5` [Hippeastrine hydrobromide], the neuronal differentiation score in the experiment with ReNCell VM [1] (library: Phytochemical) was active: 2. In addition, the “dopaminergic neuron differentiation score” value in the experiment on ReNCell VM [2] (library: Phytochemical) is inactive: 0.
In the case of `CC(C)Oc1cccnc1N(C)C1CCN(Cc2ccccc2)CC1`, the neuronal differentiation score in the experiment on ReNCell VM [1] (library: LOPAC) is inactive: 0. For the same compound, in the experiment on ReNCell VM [2] (library: LOPAC), the “dopaminergic neuron differentiation score” value was inactive: 0.
Regarding `CCC1(C2=NCCN2)Cc2ccccc2O1` (configuration not stated), the neuronal differentiation score with ReNCell VM [1] (library: Spectrum) was inactive: 0. Also, the “dopaminergic neuron differentiation score” value in the experiment on ReNCell VM [2] (library: Spectrum) is inactive: 0.
On to `C[C@@]12N[C@@H](Cc3ccccc31)c1ccccc12` [(-)-MK 801 hydrogen maleate], for which the neuronal differentiation score in the experiment on ReNCell VM [1] (library: Prestwick) was inactive: 0. For the same compound, the “dopaminergic neuron differentiation score” value in the experiment with ReNCell VM [2] (library: Prestwick) is inactive: 0.
In the case of `NC(=O)C[S@@+]([O-])C(c1ccccc1)c1ccccc1`, in the experiment with ReNCell VM [1] (library: Spectrum), the neuronal differentiation score is inactive: -1. Further, the “dopaminergic neuron differentiation score” value with ReNCell VM [2] (library: Spectrum) was inactive: 0.
`O=C1C=C2C(=CCOC2O)O1` (configuration not stated): the neuronal differentiation score in the experiment on ReNCell VM [1] (library: Spectrum) is inactive: 0. Besides, the “dopaminergic neuron differentiation score” value in the experiment with ReNCell VM [2] (library: Spectrum) was inactive: 0.
As for `CN1C[C@H](C(=O)N[C@]2(C)O[C@@]3(O)[C@@H]4CCCN4C(=O)[C@H](Cc4ccccc4)N3C2=O)C[C@@H]2c3cccc4[nH]cc(c34)C[C@H]21` [Dihydroergotamine tartrate], the neuronal differentiation score in the experiment on ReNCell VM [1] (library: Prestwick) was inactive: 0. Also, the “dopaminergic neuron differentiation score” value in the experiment with ReNCell VM [2] (library: Prestwick) was inactive: 0.
In the case of `N#CC(C#N)=Cc1cc(O)c(O)c(O)c1` [Tyrphostin 25], the neuronal differentiation score with ReNCell VM [1] (library: LOPAC) is inactive: 0. Further, the “dopaminergic neuron differentiation score” value in the experiment with ReNCell VM [2] (library: LOPAC) was inactive: 0.
Take `CC(C)(C)NCC(O)c1cc(Cl)c(N)c(Cl)c1` (configuration not stated) [Clenbuterol hydrochloride]: in the experiment on ReNCell VM [1] (library: Prestwick), the neuronal differentiation score was inactive: 0. Moreover, the “dopaminergic neuron differentiation score” value in the experiment on ReNCell VM [2] (library: Prestwick) was inactive: 0.
Consider `O=c1cccc2n1C[C@@H]1CNC[C@H]2C1`, for which the neuronal differentiation score in the experiment with ReNCell VM [1] (library: Spectrum) was inactive: 0. Further, the “dopaminergic neuron differentiation score” value in the experiment with ReNCell VM [2] (library: Spectrum) was inactive: 0.
Take `Cc1[nH]c2ccc(Cl)cc2c1C1=CCNCC1`: the neuronal differentiation score with ReNCell VM [1] (library: Tocriscreen) was inactive: 0. In addition, the “dopaminergic neuron differentiation score” value in the experiment on ReNCell VM [2] (library: Tocriscreen) is inactive: 0.
For the compound `NCCCP(=O)(O)O` [3-Aminopropylphosphonic acid], the neuronal differentiation score in the experiment on ReNCell VM [1] (library: LOPAC) was inactive: 0. Also, the “dopaminergic neuron differentiation score” value with ReNCell VM [2] (library: LOPAC) was inactive: 0.
Take `S=C(NC1CCCCC1)N1CCC(c2cnc[nH]2)CC1` [Thioperamide]: the neuronal differentiation score in the experiment on ReNCell VM [1] (library: Tocriscreen) is inactive: 0. In addition, in the experiment on ReNCell VM [2] (library: Tocriscreen), the “dopaminergic neuron differentiation score” value is inactive: 0.
Take `C=C[C@H]1CN2CC[C@H]1C[C@@H]2[C@@H](O)c1ccnc2ccccc12`: in the experiment with ReNCell VM [1] (library: Spectrum), the neuronal differentiation score is inactive: 0. In addition, the “dopaminergic neuron differentiation score” value in the experiment with ReNCell VM [2] (library: Spectrum) is inactive: 0.
With `CC(N)Cc1c[nH]c2ccc(O)cc12` (stereo not drawn) [alpha-Methyl-5-hydroxytryptamine maleate], the neuronal differentiation score in the experiment on ReNCell VM [1] (library: LOPAC) was inactive: 0. The “dopaminergic neuron differentiation score” value in the experiment on ReNCell VM [2] (library: LOPAC) is inactive: 0.
On to `C[N+]1(C)[C@@H]2CC[C@H]1C[C@@H](OC(=O)C(CO)c1ccccc1)C2` (some centres not stated) [Atropine methyl bromide], for which, in the experiment on ReNCell VM [1] (library: LOPAC), the neuronal differentiation score is inactive: 0. Moreover, the “dopaminergic neuron differentiation score” value with ReNCell VM [2] (library: LOPAC) is inactive: 0.
As to `COc1ccc(C(=O)OC2C[C@H]3CC[C@@H](C2)N3C)cc1OC` (some centres not stated) [Convolamine hydrochloride], the neuronal differentiation score with ReNCell VM [1] (library: Phytochemical) was inactive: 0. Further, the “dopaminergic neuron differentiation score” value in the experiment with ReNCell VM [2] (library: Phytochemical) is inactive: 0.
In the case of `CC(=O)OC1CCC23C(=O)OC45CCC(C6=CC(=O)OC6)C4(C)CCC2C5CCC3(O)C1` (configuration not stated), in the experiment with ReNCell VM [1] (library: Spectrum), the neuronal differentiation score was inactive: 0. In the experiment with ReNCell VM [2] (library: Spectrum), the “dopaminergic neuron differentiation score” value was inactive: 0.
Take `CN[C@@H]1[C@@H](O)[C@@H](O[C@@H]2[C@@H](O)[C@H](O[C@H]3O[C@H](CN)CC[C@H]3N)[C@@H](N)C[C@H]2N)OC[C@]1(C)O.CN[C@@H]1[C@@H](O)[C@@H](O[C@@H]2[C@@H](O)[C@H](O[C@H]3O[C@H]([C@@H](C)N)CC[C@H]3N)[C@@H](N)C[C@H]2N)OC[C@]1(C)O.CN[C@@H]1[C@@H](O)[C@@H](O[C@@H]2[C@@H](O)[C@H](O[C@H]3O[C@H]([C@@H](C)NC)CC[C@H]3N)[C@@H](N)C[C@H]2N)OC[C@]1(C)O` [Gentamicine sulfate]: the neuronal differentiation score in the experiment on ReNCell VM [1] (library: Prestwick) is inactive: 0. Besides, the “dopaminergic neuron differentiation score” value in the experiment on ReNCell VM [2] (library: Prestwick) is inactive: 0.
As to `COc1cc([C@@H]2c3cc4c(cc3[C@H](OC(C)=O)[C@H]3COC(=O)[C@@H]23)OCO4)cc(OC)c1OC`, the neuronal differentiation score with ReNCell VM [1] (library: Spectrum) was inactive: 0. Further, the “dopaminergic neuron differentiation score” value in the experiment with ReNCell VM [2] (library: Spectrum) was inactive: 0.
Regarding `CNCCc1c[nH]c2ccc(O)cc12` [N-omega-Methyl-5-hydroxytryptamine oxalate salt], the neuronal differentiation score in the experiment on ReNCell VM [1] (library: LOPAC) is inactive: 0. Moreover, the “dopaminergic neuron differentiation score” value in the experiment with ReNCell VM [2] (library: LOPAC) is inactive: 0.
Consider `NC(=O)CN1CC(O)CC1=O` (configuration not stated) [Oxiracetam], for which the neuronal differentiation score in the experiment with ReNCell VM [1] (library: LOPAC) is inactive: 0. Besides, the “dopaminergic neuron differentiation score” value in the experiment on ReNCell VM [2] (library: LOPAC) was inactive: 0.
On to `COc1cc(OC)c(OC)cc1C=O`, for which the neuronal differentiation score in the experiment with ReNCell VM [1] (library: Spectrum) was inactive: 0. For the same compound, the “dopaminergic neuron differentiation score” value in the experiment with ReNCell VM [2] (library: Spectrum) is inactive: 0.
Turning to `CCCN(C/C=C/I)C1CCc2ccc(O)cc2C1` (configuration not stated) [7-Hydroxy-PIPAT maleate], the neuronal differentiation score with ReNCell VM [1] (library: Tocriscreen) was inactive: 0. Also, in the experiment with ReNCell VM [2] (library: Tocriscreen), the “dopaminergic neuron differentiation score” value is inactive: 0.
Turning to `C=C1[C@@H]2CC[C@H]3[C@]4(C)C[C@H](O[C@@H]5O[C@H](CO)[C@@H](OS(=O)(=O)O)[C@H](OS(=O)(=O)O)[C@H]5OC(=O)CC(C)C)C[C@@H](C(=O)O)[C@H]4CC[C@]3(C2)[C@@H]1O` [Atractyloside potassium salt], the neuronal differentiation score with ReNCell VM [1] (library: Prestwick) was inactive: 0. Moreover, in the experiment on ReNCell VM [2] (library: Prestwick), the “dopaminergic neuron differentiation score” value was inactive: 0.
